These results are taken from paper PMC11102480.

The chains behind the UniProt entries cited, without tags or fusion partners. Residues count along the entry.
UniProt Q9NZQ7, residues 19-290: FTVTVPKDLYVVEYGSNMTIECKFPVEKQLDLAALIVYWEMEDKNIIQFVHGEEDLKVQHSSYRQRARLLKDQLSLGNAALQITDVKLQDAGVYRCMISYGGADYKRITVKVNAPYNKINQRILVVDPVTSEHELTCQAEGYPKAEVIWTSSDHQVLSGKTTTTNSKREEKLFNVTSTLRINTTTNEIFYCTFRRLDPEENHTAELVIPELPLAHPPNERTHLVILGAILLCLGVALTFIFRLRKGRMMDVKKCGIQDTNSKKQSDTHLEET

No constants are given. Whether binding was seen depends on the method and setting. In cells and extracts the contact can be indirect. Some binding calls cover weakened binding; strength is not graded here. Where a sequence is shown, tags or fusion partners need not be part of it.

This test has as its target T1, Flag-tagged IPO5 (Importin 5) (UniProt O00410).
T1 sequence: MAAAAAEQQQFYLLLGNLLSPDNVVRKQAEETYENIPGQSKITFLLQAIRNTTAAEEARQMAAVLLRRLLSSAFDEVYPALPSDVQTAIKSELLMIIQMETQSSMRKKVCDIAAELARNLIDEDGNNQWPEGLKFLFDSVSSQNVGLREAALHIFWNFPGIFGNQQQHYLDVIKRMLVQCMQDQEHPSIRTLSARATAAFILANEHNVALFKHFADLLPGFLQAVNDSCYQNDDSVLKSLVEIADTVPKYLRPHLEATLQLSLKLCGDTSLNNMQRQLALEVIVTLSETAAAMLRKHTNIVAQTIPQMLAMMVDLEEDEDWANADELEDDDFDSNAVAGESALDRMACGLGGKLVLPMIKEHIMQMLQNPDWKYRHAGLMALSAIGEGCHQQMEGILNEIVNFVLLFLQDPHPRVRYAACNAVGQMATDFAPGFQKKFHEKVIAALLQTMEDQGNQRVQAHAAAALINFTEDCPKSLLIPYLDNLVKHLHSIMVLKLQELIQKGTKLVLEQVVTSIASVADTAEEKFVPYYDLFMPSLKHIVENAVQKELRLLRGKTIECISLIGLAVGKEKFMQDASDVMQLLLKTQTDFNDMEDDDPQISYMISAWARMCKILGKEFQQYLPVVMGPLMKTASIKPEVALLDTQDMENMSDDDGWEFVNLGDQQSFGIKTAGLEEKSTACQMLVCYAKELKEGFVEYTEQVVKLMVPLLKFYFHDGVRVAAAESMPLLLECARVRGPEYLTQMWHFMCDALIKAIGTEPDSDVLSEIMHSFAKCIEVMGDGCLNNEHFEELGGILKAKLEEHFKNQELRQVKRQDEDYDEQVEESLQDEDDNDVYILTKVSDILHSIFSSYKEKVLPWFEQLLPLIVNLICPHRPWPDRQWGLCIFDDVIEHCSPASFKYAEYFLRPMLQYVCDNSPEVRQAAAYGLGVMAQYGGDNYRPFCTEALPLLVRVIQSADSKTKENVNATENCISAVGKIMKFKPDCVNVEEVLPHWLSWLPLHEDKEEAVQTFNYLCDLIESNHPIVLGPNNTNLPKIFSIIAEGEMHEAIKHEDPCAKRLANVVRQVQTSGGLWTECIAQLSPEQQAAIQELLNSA
The experiment in a line: co-IP; HEK 293T cells co-expressing Myc-tagged PD-L1 and Flag-tagged IPO5; lysates incubated with antibody (anti-Flag, anti-Myc or normal IgG) at 4 °C overnight, then protein A/G beads or M2 anti-Flag resin at room temperature 2-3 h; three washes with lysis buffer; Western blot.

As for “Myc-tagged PD-L1 (programmed cell death-ligand 1) (from UniProt Q9NZQ7 19-290)”, the binding entry is “binds”.
